PubChem BioAssay AID1259283 – Sanger Institute, 2017
This is one part, drawn at random, of 794 deposited reagents. Of all reagents, 14 (1.8%) were called active. 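Calls reflect only viability loss without drug; drug synergy does not enter the call.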 Viability is capped at 1. Not given: the amount of reagent, the time to read-out.

Screen: 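Kinases needed for HT115 growth and partners for drug synergy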 (primary screen)
System: HT115 colorectal cancer cells
Reagent: siRNA pool against human genes
Conditions: anchor drug given one day after siRNA: BYL719 at 1 µM, cetuximab at 5 µg/ml, trametinib at 10 nM, or DMSO vehicle alone
Measurement: 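Per-drug synergy scores plus replicate-mean viability relative to non-targeting pool #2 wells, also expressed as a robust z-score based on control wells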
Direction: robust z-score, knock-down alone: higher = more viable cells after knock-down; viability, DMSO vs non-targeting control: higher = more viable cells; synergy score with BYL719 and synergy score with cetuximab and synergy score with trametinib: higher = stronger synergy with drug (synthetic lethal)
Rule for the call: 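Essential gene: robust z-score less than -3 with no drug added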
Meaning of the calls: active = essential (z below -3, no drug); inactive = no change without drug

| gene | robust z-score, knock-down alone | viability, DMSO vs non-targeting control (fraction of control) | synergy score with BYL719 | synergy score with cetuximab | synergy score with trametinib | Outcome |
| --- | --- | --- | --- | --- | --- | --- |
| PRKCQ (protein kinase C theta) | 0.595 | 0.982 | -0.0194 | 0.0193 | 0.146 | inactive |
| MAPK15 (mitogen-activated protein kinase 15) | -0.507 | 0.88 | -0.0547 | 0.151 | 0.0717 | inactive |
| MAP3K2 (mitogen-activated protein kinase kinase kinase 2) | 0.789 | 1 | -0.0224 | -0.0435 | -0.0142 | inactive |
| PKN2 (protein kinase N2) | -0.589 | 0.873 | -0.0586 | 0.0549 | 0.0749 | inactive |
| TESK2 (testis associated actin remodelling kinase 2) | 0.789 | 1 | 0.115 | -0.0131 | -0.0631 | inactive |
| MAP2K3 (mitogen-activated protein kinase kinase 3) | -0.105 | 0.917 | -0.0228 | 0.0202 | 0.213 | inactive |
| MLKL (mixed lineage kinase domain like pseudokinase) | -0.861 | 0.848 | -0.136 | -0.0301 | -0.119 | inactive |
| PLK3 (polo like kinase 3) | 0.493 | 0.973 | 0.103 | -0.00746 | -0.0571 | inactive |
| UCK2 (uridine-cytidine kinase 2) | 0.789 | 1 | -0.0224 | 0.036 | 0.0721 | inactive |
| HASPIN (histone H3 associated protein kinase) | 0.714 | 0.993 | 0.125 | 0.232 | 0.233 | inactive |
| AGK (acylglycerol kinase) | 0.225 | 0.948 | 0.166 | 0.172 | 0.198 | inactive |
| BMPR2 (bone morphogenetic protein receptor type 2) | -0.223 | 0.906 | 0.0107 | 0.00114 | 0.00841 | inactive |
| CPNE3 (copine 3) | -0.189 | 0.91 | -0.0948 | -0.0962 | 0.0698 | inactive |
| STK35 (serine/threonine kinase 35) | 0.789 | 1 | -0.0224 | 0.042 | 0.027 | inactive |
| ETNK2 (ethanolamine kinase 2) | -1.02 | 0.832 | 0.028 | -0.0293 | -0.0729 | inactive |
| GUCY2F (guanylate cyclase 2F, retinal) | 0.397 | 0.964 | -0.0412 | 0.00013 | 0.0926 | inactive |
| STK33 (serine/threonine kinase 33) | 0.262 | 0.951 | 0.106 | 0.201 | 0.117 | inactive |
| CKS1B (CDC28 protein kinase regulatory subunit 1B) | 0.238 | 0.949 | 0.0378 | 0 | -0.054 | inactive |
| NTRK3 (neurotrophic receptor tyrosine kinase 3) | 0.789 | 1 | -0.0224 | -0.0328 | 0.0072 | inactive |
| RFK (riboflavin kinase) | 0.789 | 1 | 0.0224 | -0.0434 | 0.0627 | inactive |
| CDK3 (cyclin dependent kinase 3) | 0.789 | 1 | -0.0224 | 0.00676 | 0.15 | inactive |
| SMAD2 (SMAD family member 2) | -1.36 | 0.801 | -0.0669 | -0.0666 | -0.0967 | inactive |
| PACSIN1 (protein kinase C and casein kinase substrate in neurons 1) | 0.289 | 0.954 | 0.147 | 0.128 | 0.111 | inactive |
| IRAK3 (interleukin 1 receptor associated kinase 3) | -1.95 | 0.747 | 0.0954 | 0.0494 | 0.177 | inactive |
| MAP4K1 (mitogen-activated protein kinase kinase kinase kinase 1) | -0.111 | 0.917 | 0.0395 | 0.0514 | -0.00859 | inactive |
| CAMKV (CaM kinase like vesicle associated) | 0.789 | 1 | -0.0224 | 0.113 | 0.151 | inactive |
| EPHA4 (EPH receptor A4) | 0.417 | 0.966 | 0.116 | 0.0411 | 0.0193 | inactive |
| DTYMK (deoxythymidylate kinase) | 0.784 | 1 | 0.00383 | 0.0207 | 0.108 | inactive |
| DGKG (diacylglycerol kinase gamma) | -1.53 | 0.785 | -0.216 | -0.203 | -0.0248 | inactive |
| PRKAB1 (protein kinase AMP-activated non-catalytic subunit beta 1) | -2.03 | 0.739 | -0.19 | 0.0257 | 0.144 | inactive |
| CUL1 (cullin 1) | 0.789 | 1 | -0.0224 | -0.0331 | -0.0936 | inactive |
| BRSK1 (BR serine/threonine kinase 1) | -0.0241 | 0.925 | -0.0147 | 0.0557 | 0.0938 | inactive |
| PIK3C2B | 0.789 | 1 | 0.031 | -0.008 | 0.142 | inactive |
| LRRK2 (leucine rich repeat kinase 2) | 0.4 | 0.964 | -0.0453 | -0.0175 | -0.0161 | inactive |
| MPP3 (MAGUK p55 scaffold protein 3) | -1.9 | 0.751 | -0.0209 | 0.191 | 0.258 | inactive |
| DDR1 (discoidin domain receptor tyrosine kinase 1) | 0.789 | 1 | -0.0193 | 0.00122 | 0.0465 | inactive |
| SPHK1 (sphingosine kinase 1) | 0.789 | 1 | 0.136 | 0.194 | 0.152 | inactive |
| PTPN11 (protein tyrosine phosphatase non-receptor type 11) | 0.789 | 1 | 0.0138 | 0.0726 | -0.0146 | inactive |
| TLK1 (tousled like kinase 1) | -1.53 | 0.786 | -0.0781 | 0.0921 | 0.137 | inactive |
| PRKAG1 (protein kinase AMP-activated non-catalytic subunit gamma 1) | 0.789 | 1 | 0.0311 | 0.11 | 0.0727 | inactive |
| STK3 (serine/threonine kinase 3) | 0.789 | 1 | 0.0648 | 0.0417 | 0.12 | inactive |
| TRPM7 | -0.82 | 0.851 | 0.0118 | 0.0844 | 0.0751 | inactive |
| STK4 (serine/threonine kinase 4) | 0.789 | 1 | 0.0644 | 0.0701 | 0.042 | inactive |
| PRPS1 (phosphoribosyl pyrophosphate synthetase 1) | 0.789 | 1 | -0.0224 | 0.122 | 0.136 | inactive |
| PEAK1 (pseudopodium enriched atypical kinase 1) | 0.789 | 1 | 0.0677 | 0.0707 | 0.126 | inactive |
| MELK (maternal embryonic leucine zipper kinase) | -0.135 | 0.915 | 0.0759 | -0.0316 | 0.011 | inactive |
| DLG3 (discs large MAGUK scaffold protein 3) | 0.789 | 1 | -0.0224 | 0.0573 | 0.0038 | inactive |
| TSSK3 (testis specific serine kinase 3) | -0.804 | 0.853 | -0.0424 | 0.00452 | -0.0618 | inactive |
| ADGRL2 (adhesion G protein-coupled receptor L2) | 0.789 | 1 | -0.0164 | 0.0132 | 0.118 | inactive |
| PTK2 (protein tyrosine kinase 2) | 0.789 | 1 | -0.0172 | 0.174 | 0.0471 | inactive |
